This data set addresses KLF15-ZF-GST (human) (UniProt Q9UIH9). Kind of data set: competition with a labelled probe. Particulars: vs bRho29 or hRho29 probe, EMSA: 4 mM HEPES, 5 mM EGTA, 100 mM KCl, 0.25 mM ZnCl2, 0.02% NP40, 0.1 M DTT, 4% glycerol, 90-120 min on ice, pH not stated, recombinant protein, residues 294-416, protein details: N-terminal GST, label: unlabeled. For orientation: Mobility shift assays separate free from complexed probe on a gel.

By UniProt entry, the sequences of proteins in these tests, tags left out. Residues count along the entry.
UniProt Q9UIH9, 294-416: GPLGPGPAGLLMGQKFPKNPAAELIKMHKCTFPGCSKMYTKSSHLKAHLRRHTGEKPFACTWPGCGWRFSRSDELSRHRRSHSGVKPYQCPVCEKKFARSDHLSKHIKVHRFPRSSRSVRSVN

For at least one entry, the source does not settle the construct or the ends of the probe. A weaker result is weaker than the reference pair of the same experiment. At least one verdict was read from the data and is not stated in words by the source.

As to “GGCATAACGCCCCCAATCTCCGAGGTGC (double strand) [bRho29 D1]”, the binding result (as wild type) is listed as “binds”.

Regarding “TTAATAAAGCCCACAATCTCCGAGGTGC (double strand) [bRho29 D8_13]”, the binding result is listed as “binds more weakly”. Take “TTAATAACGCACCCAATCTCCGAGTGTC (double strand) [bRho29 D11]”: the binding result is listed as “binds more weakly”. On to “TTAATAACGCCCAACATCTCCGAGGTGC (double strand) [bRho29 D13]”, for which the binding result is listed as “binds more weakly”. Regarding “TTAATAACGCCCCCAATCGAAGAGGTGC (double strand) [bRho29 D19]”, the binding result (as wild type) is listed as “binds”. With “TTAATAACGCCCCCAATCTCCGAGTGTC (double strand) [bRho29 D25]”, for the setting “as wild type”, the binding result was “binds”. On the same count and under the same terms, next, “TTAATAACGCCCCCAATCTCCTGTGTGC (double strand) [bRho29 D22]”: “binds”; “TTAATAACGCCCCCACGATCCGAGGTGC (double strand) [bRho29 D16]”: “binds”.

As for “TTAATACATCCCAACATCTCCGAGGTGC (double strand) [bRho29 D7+D13]”, the binding result was “binds more weakly”. Still for that read-out and setting: next, “TTAATACATCCCCCAATCTCCGAGGTGC (double strand) [bRho29 D7]”: “binds more weakly”. For “TTACGCACGCCCCCAATCTCCGAGGTGC (double strand) [bRho29 D4]”, the binding result (as wild type) is recorded as “binds”.

Values taken from publication PMC1182371.
